Some entries share one result that the patent states for a list of compounds. For some of these results: At least one compound was matched to its structure with a doubt left.
Assays:
[1] = system: cotton aphid (Aphis gossypii); experiment: Test Example 1: foliar spray on cucumber seedlings infested with cotton aphid, controlling value; assay type: in vivo; conditions: spray 10 mL/seedling on cucumber, 5 days after spraying, 25° C.
Excerpt: Controlling value (%)={1−(Cb×Tai)/(Cai×Tb)}×100 wherein the symbols in the formula represent the following meanings. Cb: Number of the test insects in untreated group; Cai: Number of the surviving insects at the time of the investigation in untreated group; Tb: Number of the test insects in treated group; Tai: Number of the surviving insects at the time of the investigation in treated group; Here the “untreated group” represents a group where a similar treatment procedure to that of the treated group except not using each test compound is done.

[2] = system: cucurbit leaf beetle (Aulacophora femoralis); experiment: Test Example 9: sprayed cucumber leaves, cucurbit leaf beetle 2nd instar larvae, mortality; assay type: in vivo; conditions: 50 ppm, spray 10 mL/seedling on cucumber, after 5 days
[3] = system: cabbage moth (Plutella xylostella); conditions: 500 ppm, spray 20 mL/seedling on cabbage, 2nd instar larvae, after 5 days
[4] = system: western corn rootworm (Diabrotica virgifera virgifera); conditions: 500 ppm, corn seedlings immersed 30 seconds, 2nd instar larvae, after 5 days

Compound	controlling value ([1]; 200 ppm) [%]	controlling value ([1]; 500 ppm) [%]	further results
CCSc1ccccc1-c1ccc(OCC(F)(F)C(F)(F)F)cn1 [Present compound 1]	≥ 90	≥ 90	
CC[S+]([O-])c1ccccc1-c1ccc(OCC(F)(F)C(F)(F)F)cn1 (stereo not shown) [Present compound 2]	≥ 90	≥ 90	
CCS(=O)(=O)c1ccccc1-c1ccc(OCC(F)(F)C(F)(F)F)cn1 [Present compound 3]		≥ 90	
CC[S+]([O-])c1ccccc1-c1ccc(OCC(F)(F)C(F)F)cn1 (stereo not shown) [Present compound 5]	≥ 90	≥ 90	
CCS(=O)(=O)c1ccccc1-c1ccc(OCC(F)(F)C(F)F)cn1 [Present compound 6]	≥ 90	≥ 90	
CCS(=O)(=O)c1cc(C(F)(F)F)ccc1-c1ccc(OCC(F)(F)F)cn1 [Present compound 7]		≥ 90	mortality of insects [2]: ≥ 80%
CCS(=O)(=O)c1cc(C(F)(F)F)ccc1-c1ccc(OCC(F)(F)C(F)(F)F)cn1 [Present compound 8]	≥ 90	≥ 90	mortality of insects [2]: ≥ 80%
CCS(=O)(=O)c1cc(C(F)(F)F)ccc1-c1ccc(OCC(F)(F)C(F)C(F)(F)F)cn1 (stereo not shown) [Present compound 9]		≥ 90	mortality of insects [2]: ≥ 80%
CCS(=O)(=O)c1cc(C(F)(F)F)ccc1-c1ccc(OCC(F)(F)C(F)F)cn1 [Present compound 11]	≥ 90	≥ 90	
CC[S+]([O-])c1cc(Cl)ccc1-c1ccc(OCC(F)(F)C(F)(F)F)cn1 (stereo not shown) [Present compound 13]		≥ 90	
CCS(=O)(=O)c1cc(Cl)ccc1-c1ccc(OCC(F)(F)C(F)(F)F)cn1 [Present compound 14]		≥ 90	
CC[S+]([O-])c1ccc(C(F)(F)F)cc1-c1ccc(OCC(F)(F)C(F)(F)F)cn1 (stereo not shown) [Present compound 19]			mortality of insects [3]: ≥ 80%
CCS(=O)(=O)c1ccc(C(F)(F)F)cc1-c1ccc(OCC(F)(F)C(F)(F)F)cn1 [Present compound 20]			mortality of insects [3]: ≥ 80%; mortality of insects [4]: ≥ 80%
CCSc1ccc(Cl)cc1-c1ccc(OCC(F)(F)C(F)(F)F)cn1 [Present compound 21]		≥ 90	
CCSc1c(-c2ccc(OCC(F)(F)C(F)(F)F)cn2)cccc1C(F)(F)F [Present compound 25]		≥ 90	
CC[S+]([O-])c1c(-c2ccc(OCC(F)(F)C(F)(F)F)cn2)cccc1C(F)(F)F (stereo not shown) [Present compound 26]			mortality of insects [3]: ≥ 80%; mortality of insects [4]: ≥ 80%
CCSc1c(Cl)cccc1-c1ccc(OCC(F)(F)C(F)(F)F)cn1 [Present compound 28]		≥ 90	
CCSc1cc([N+](=O)[O-])ccc1-c1ccc(OCC(F)(F)C(F)(F)F)cn1 [Present compound 31]		≥ 90	
CCSc1ccc(C)cc1-c1ccc(OCC(F)(F)C(F)(F)F)cn1 [Present compound 44]	≥ 90	≥ 90	
CCSc1cc(OC(F)(F)F)ccc1-c1ccc(OCC(F)(F)C(F)(F)F)cn1 [Present compound 47]		≥ 90	
CCSc1cc(C)ccc1-c1ccc(OCC(F)(F)C(F)(F)F)cn1 [Present compound 50]		≥ 90	
CCSc1cc(Br)ccc1-c1ccc(OCC(F)(F)C(F)(F)F)cn1 [Present compound 56]	≥ 90	≥ 90	
CCSc1ccc(C#N)cc1-c1ccc(OCC(F)(F)C(F)(F)F)cn1 [Present compound 64]	≥ 90	≥ 90	
